Measurements published in publication PMC2935386.
The exact form of at least one protein or probe is not confirmed. Weaker means in comparison with the reference protein, sequence or condition of that experiment. Where a protein sequence is shown, tags need not be part of it.

Target: T1, TRβ1 DBD-LBD (TR DL, TRβ1ΔAB) (human) (UniProt P10828)
T1 sequence (looked up): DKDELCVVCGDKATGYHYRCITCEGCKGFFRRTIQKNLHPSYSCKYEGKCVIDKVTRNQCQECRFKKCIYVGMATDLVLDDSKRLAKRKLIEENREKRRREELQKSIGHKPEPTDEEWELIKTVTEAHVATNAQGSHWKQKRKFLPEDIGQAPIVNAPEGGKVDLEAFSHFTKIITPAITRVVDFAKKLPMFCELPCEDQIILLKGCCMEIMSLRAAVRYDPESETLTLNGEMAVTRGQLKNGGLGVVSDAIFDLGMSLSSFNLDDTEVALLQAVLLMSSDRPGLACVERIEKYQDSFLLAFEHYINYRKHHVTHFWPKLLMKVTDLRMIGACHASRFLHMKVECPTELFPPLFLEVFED
Assay: fluorescence anisotropy
Settings: T3, very weak, Kd not determinable; Fluorescence anisotropy: 10 nM DNA, 20 mM Hepes pH 8.0, 50 mM NaCl, 1 mM MgCl2, 3 mM DTT, 5% glycerol, 10°C; agarose gel 1.3% in 0.5x TBE; recombinant protein; residues 102-461; protein details: His (pET28a); label: 5' fluorescein (FITC) on forward strand

CACTTGATAACAGAAAGTGATAACTCT (double strand) [GATA-RE (canonical)]
binding result: binds more weakly

TCAATAGATGCTTTTCAGATAAGAA (double strand) [TSH GATA-RE]
binding result: binds more weakly
